# Test results reported in patent US20090136514A1, “Tetracyclines for Treating Ocular Diseases and Disorders” (priority 2005, published 2009).
# For at least one compound, name, drawing or mass did not settle the structure.
# System: VEGF-mediated retinal vascular damage
# Assay: VEGF-induced retinal vascular leakage in rabbits, fundus photography and fluorescein angiography
# Type: in vivo, Dutch Belted rabbits
# Conditions: as compared to the rabbits that received vehicle
# Protocol: Retinal vascular leakage was induced in rabbits by intravitreal injection of VEGF according to the procedures set forth in Edelman et al., Experimental Eye Research 80:249-258 (2005). The protective effect of doxycycline on VEGF-mediated retinal vascular damage was assessed. A total of 12 Dutch Belted rabbits (Covance) were anesthetized with isoflurane inhalation and topical 0.5% proparacaine hydrochloride and each eye studied (24 eyes total). Four animals received a 50 μl intravitreal injection of 0.025% bovine serum albumin (BSA) in sterile phosphate-buffered saline (PBS) (Dow Pharmaceutical Sciences) (vehicle, eight eyes total). Doxycycline was formulated from anhydrous doxycycline (Dow Pharmaceutical Sciences) and reconstituted as a saturated solution of doxycycline in 0.025% BSA in PBS assayed to be at a final doxycycline concentration of approximately 0.067 weight percent. Four animals received 50 μl of the doxycycline formulation in each eye (eight eyes total). Four animals received 50 μl of a 40 mg/mL solution of triamcinolone acetonide (Kenalog®, Bristol Myers-Squibb) in 0.025% BSA in PBS (positive control, eight eyes total). […]
# Vascular leakage, hemorrhage, and edema were assessed using fundus photography and fluorescein angiography (see Table 1). […]
compound,measurement,value
"CC1(C)O[C@@H]2C[C@H]3[C@@H]4CCC5=CC(=O)C=C[C@]5(C)[C@@]4(F)[C@@H](O)C[C@]3(C)[C@]2(C(=O)CO)O1 [Kenalog, triamcinolone acetonide]",VEGF-mediated retinal vascular damage,very little response
